# Screening data, single-dose tests

Amino acid sequences for entries named in this document (tags omitted). Residues count along the entry.
UniProt P9WFT3, whole entry: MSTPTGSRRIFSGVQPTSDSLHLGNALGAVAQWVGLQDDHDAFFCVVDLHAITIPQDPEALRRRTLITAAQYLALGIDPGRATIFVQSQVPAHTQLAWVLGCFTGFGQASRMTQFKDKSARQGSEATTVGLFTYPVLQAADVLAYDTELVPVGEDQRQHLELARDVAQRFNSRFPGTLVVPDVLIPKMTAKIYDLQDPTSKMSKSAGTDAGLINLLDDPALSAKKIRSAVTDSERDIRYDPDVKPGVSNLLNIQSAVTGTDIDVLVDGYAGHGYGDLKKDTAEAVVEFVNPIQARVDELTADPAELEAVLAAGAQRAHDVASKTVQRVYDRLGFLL
UniProt A4I591, 1-473: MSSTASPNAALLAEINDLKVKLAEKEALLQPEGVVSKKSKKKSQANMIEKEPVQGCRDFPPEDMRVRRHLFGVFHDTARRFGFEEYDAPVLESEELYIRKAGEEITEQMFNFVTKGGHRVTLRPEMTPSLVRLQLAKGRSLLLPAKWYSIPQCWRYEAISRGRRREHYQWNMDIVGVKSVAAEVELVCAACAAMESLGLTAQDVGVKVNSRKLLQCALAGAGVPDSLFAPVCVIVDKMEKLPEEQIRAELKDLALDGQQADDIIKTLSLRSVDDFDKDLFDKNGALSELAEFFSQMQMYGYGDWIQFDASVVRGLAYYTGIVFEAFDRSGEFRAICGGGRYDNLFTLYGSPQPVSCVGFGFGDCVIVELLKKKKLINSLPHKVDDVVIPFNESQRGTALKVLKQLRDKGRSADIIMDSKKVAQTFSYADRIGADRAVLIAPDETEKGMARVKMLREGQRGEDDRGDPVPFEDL

Measurements from “University of Dundee, Small-Polar-MMV Screening Library” (2021), ChEMBL document CHEMBL3988442.

MtTrpRS: 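Enzyme assay of tryptophanyl-tRNA synthetase; the read-out is not stated. Target: Tryptophan-tRNA ligase, Mycobacterium tuberculosis (UniProt P9WFT3). Compounds at 10 µM. Direction is not recorded; retested compounds ran higher, which suggests that high means inhibition. Size under these conditions: about 65,000 compounds, about 64 of them at 50% or above in at least one test.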
LiHisRS: 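Histidine-tRNA ligase, Leishmania infantum (UniProt A4I591). Enzyme assay of histidyl-tRNA synthetase; the read-out is not stated. Concentration: 30 µM. The record gives no direction; compounds that gave an IC50 in retests scored well above the rest, so higher reads as stronger inhibition. The assay is labelled LdHisRS but filed under L. infantum. Size under these conditions: about 69,000 compounds, about 410 of them at 50% or above in at least one test.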

Values are the deposited “Percent Effect”, in %. How 0% and 100% were set is not recorded. Most values in the screen are low, and negative values occur. This is an unselected part of the compounds tested.

For Cc1nn(C)c2c(N3CCN(C(=O)C4CCCO4)CC3)ncnc12 (configuration not stated) the result was MtTrpRS: -2.979%; LiHisRS: 8.621%. Result for O=C(CCS(=O)(=O)c1ccccc1)NCCCn1cccn1 was MtTrpRS: -0.8639%; LiHisRS: -2.381%. For c1ccc2sc(NCC3(N4CCOCC4)CCSC3)nc2c1 (configuration not stated) the result was MtTrpRS: 0.07788%; LiHisRS: 29.87%. With Cc1cc(C)nc(C2CCCN2C(=O)c2coc(C)n2)n1 (configuration not stated) the screen gave MtTrpRS: 19.23%; LiHisRS: 15.49%. CCCc1ccc(CN2CCN(C(=O)CC(C)C)[C@@H]3CS(=O)(=O)C[C@@H]32)o1 read MtTrpRS: 1.709%; LiHisRS: 14.88%. Result for COCCOCCNS(=O)(=O)C1CS(=O)(=O)c2ccccc21 (configuration not stated) was MtTrpRS: -5.263%; LiHisRS: 5.714%. Result for CCn1cnnc1C1CCN(C(=O)c2c(C)oc(C)c2C)CC1 was MtTrpRS: 1.761%; LiHisRS: 6.742%.

For Cc1nc(C)c(CC(=O)N2C[C@@H]3CC[C@H](C2)N(CC2CC2)C3)s1 the result was MtTrpRS: -2.902%; LiHisRS: 18.03%. Result for CCc1noc(CN2CCN(Cc3cccs3)CC2)n1 was MtTrpRS: 2.175%; LiHisRS: 21.15%. With CN(C)C(C)(C)CNCc1c[nH]nc1-c1cc2ccccc2o1 the screen gave MtTrpRS: -3.876%; LiHisRS: 6.195%. With CS(=O)(=O)c1cccc(C(=O)NCc2nc3cc(F)ccc3[nH]2)c1 the screen gave MtTrpRS: 1.44%; LiHisRS: 4.762%. With CC(C)C(=O)N1CCC(C)(c2cc(O)[nH]n2)CC1 the screen gave MtTrpRS: 12.88%; LiHisRS: 8.511%. With CCn1cc(NC(=O)C(C)n2ncc(Cl)c2C)c(C(=O)OC)n1 (configuration not stated) the screen gave MtTrpRS: 3.088%; LiHisRS: 13.27%. Result for CC1(C)CN(Cc2ccncc2)CCS1(=O)=O was MtTrpRS: 3.936%; LiHisRS: 10.59%.

CC(C)N1CCC(c2nc3ccc(-c4ccnn4C)cn3n2)CC1 gave MtTrpRS: 11.61%; LiHisRS: 1.389%. For CCc1nn(C)c2[nH]nc(NC(=O)c3cccnc3NC(C)C)c12 the result was MtTrpRS: 1.157%; LiHisRS: 17.28%. CC(C)(C)c1noc(OCC(=O)NCC(F)(F)F)n1 gave MtTrpRS: -3.086%; LiHisRS: 20.55%. CC(Oc1ccc(F)cc1F)C(=O)N1CCC2(CC1)CC(=O)N(C)C2 (configuration not stated) gave MtTrpRS: -1.188%; LiHisRS: 23.33%. COc1ccnc(CN2CCCC(CCc3ccc(F)cc3)C2)c1OC (configuration not stated) gave MtTrpRS: -5.499%; LiHisRS: 44.17%. For COCCCC1CCCCN1Cc1cc(F)ccc1-n1cccn1 (configuration not stated) the result was MtTrpRS: 4.173%; LiHisRS: 21.92%. CCOC(=O)CN1CCC2(CC1)CC(=O)c1ccc(OC)cc1O2 gave MtTrpRS: 0.3817%; LiHisRS: 26.83%.

Result for Cc1n[nH]c(C)c1C1COCCN1C(=O)c1cccc(F)c1F (configuration not stated) was MtTrpRS: -6.15%; LiHisRS: 15.74%.

The last 2 entries again:

| compound | MtTrpRS | LiHisRS |
|---|---|---|
| `CCOC(=O)CN1CCC2(CC1)CC(=O)c1ccc(OC)cc1O2` | 0.3817 | 26.83 |
| `Cc1n[nH]c(C)c1C1COCCN1C(=O)c1cccc(F)c1F` (configuration not stated) | -6.15 | 15.74 |